# Assay results

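Cleavage of a rhodamine-labelled peptide by isolated Zika protease, tracked by fluorescence over 15 minutes, to find blockers.
Compounds were titrated from 7.28 nM up to about 114 µM in most series.
Potency is the fitted half-maximal inhibitory concentration; lower values mean stronger inhibition.
Calls follow curve class: these rows are inconclusive because of weak, poorly fitted, partial or top-dose-only inhibition.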

Values are in µM.
All entries here are filed as inconclusive.
Only part of the assay is shown, chiefly results filed as inconclusive.
A potency from a partial, single-point or poor curve is only a rough figure.
Some entries filed as inconclusive have a full curve.

- C[C@@]12O[C@@H](C[C@]1(O)CO)n1c3ccccc3c3c4c(c5c6ccccc6n2c5c31)CNC4=O : Potency 27.74 µM (inhibitor, full curve, poor fit)
- O=c1c(O)c(-c2ccc(O)c(O)c2)oc2cc(O)cc(O)c12 : Potency 35.48 µM (inhibitor, partial curve)
- O=C(O)c1ccccc1-c1c2cc(Br)c(=O)cc-2oc2[c]([Hg])c(O)c(Br)cc12 : Potency 31.62 µM (inhibitor, full curve, poor fit)
- COc1ccc(CCO[C@@H]2O[C@H](CO[C@H]3OC[C@](O)(CO)[C@H]3O)[C@@H](OC(=O)/C=C/c3ccc(O)c(O)c3)[C@H](O[C@@H]3O[C@@H](C)[C@H](O)[C@@H](O)[C@H]3O)[C@H]2O)cc1OC : Potency 5.84 µM (inhibitor, full curve)
- CS(=O)c1ccc(-c2nc(-c3ccc(F)cc3)c(-c3ccncc3)[nH]2)cc1 (stereo not shown) : Potency 0.5548 µM (inhibitor, full curve, poor fit)
- CN(Cc1cnc2nc(N)nc(N)c2n1)c1ccc(C(=O)NC(CCC(=O)O)C(=O)O)cc1 (stereo not shown) : Potency 62.25 µM (inhibitor, partial curve)
- CCCCNc1cc(C(=O)O)cc(S(N)(=O)=O)c1Oc1ccccc1 : Potency 1.964 µM (inhibitor, full curve, poor fit)
- O=[N+]([O-])c1cccc2[nH]c(CNc3nc(N4CCOCC4)nc4c3ncn4-c3ccsc3)nc12 : Potency 49.45 µM (inhibitor, partial curve, poor fit)
- C=C1C(=O)O[C@H]2CC(=C)[C@H]3CC[C@@](C)(O)[C@@H]3CC12 (stereo partly shown) : Potency 24.78 µM (inhibitor, partial curve)
- COC(=O)c1cc2c(cn1)[nH]c1ccccc12 : Potency 62.25 µM (inhibitor, partial curve, poor fit)

Once more, the final 2:

structure	Potency (µM)	curve as filed
C=C1C(=O)O[C@H]2CC(=C)[C@H]3CC[C@@](C)(O)[C@@H]3CC12 (stereo partly shown)	24.78	inhibitor, partial curve
COC(=O)c1cc2c(cn1)[nH]c1ccccc12	62.25	inhibitor, partial curve, poor fit

Source: PubChem BioAssay AID1347161 (NCATS, 2019).